Test results: PubChem BioAssay AID2685 (National Center for Advancing Translational Sciences (NCATS), 2010)
Where “and” joins values, the source holds several entries; their conditions need not be identical. Identical values can stand only once. Some of the results follow. These are further read-outs of the screen, such as a control signal, another cell line or another target. No call is given for them. Most of these compounds were active or inconclusive in the main read-out, so they are no random draw. Potencies come from curve fits of mixed quality, noted in brackets.

Experiment: qHTS Assay for Lipid Storage Modulators in Drosophila S3 Cells;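 as to cell number change: cells counted by Cell Tracker Red CMTPX staining in the red channel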
Settings: BODIPY lipid droplet fluorescence, 18-24 h; for cell number change: measured here: cell count max response, cells fed with added oleic acid
Outline: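 Drosophila S3 cells got compounds at several concentrations plus oleic acid (400 uM solution). Laser-scanning cytometry with 488 nm excitation read lipid droplets at 500-530 nm and cells at 575-640 nm. Percent activity was relative to 20 uM Triacsin C.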

[1] = measured here: lipid fluorescence (Fed channel) AC50, cells fed with added oleic acid
[2] = measured here: cell number channel AC50, cells fed with added oleic acid

| SMILES | cell number change | AC50 [1] | AC50 [2] |
| --- | --- | --- | --- |
| Cc1ccc(C(=O)NC(=S)NNC(=O)c2ccccc2)cc1 | -10.8% | 29.1 µM [falling, single point] |  |
| S=C(Cc1cccnc1)N1CCOCC1 | -21.6% | 0.0291 µM [falling, partial curve, poor fit] |  |
| Cc1c(Br)cc(C(=O)OC2CCN(C)CC2)c(C)c1C |  | 0.82 µM [falling, full curve] | 0.116 µM [falling, full curve] |
| Cc1cc(NC(=O)CSc2ccc(-c3ccc(Br)cc3)nn2)no1 | 100% | 16.4 µM [rising, partial curve, poor fit] | 29.1 µM [rising, single point] |
| Cc1ccc2nc(SCC(=O)N3c4ccccc4CC3C)c(C)cc2c1 (configuration not stated) | -13.3% | 3.26 µM [rising, partial curve] | 6.51 µM [rising, single point] |
| COc1ccc(-c2cc3ccc(OCC(C)=O)cc3oc2=O)cc1 | -2.09% | 14.6 µM [rising, single point] |  |
| COc1ccc(OC)c(/C(O)=C/C(=O)C(=O)Nc2cc(C)ccc2OC)c1 | -1.2% | 0.731 µM [falling, single point] |  |
| CCOc1nc(-c2ccccc2Cl)nc2ccccc12 | -4.68% |  | 6.51 µM [rising, single point] |
| CCCCNC(=O)c1ccccc1NC(=O)c1ccc2c(c1)OCO2 | 65.6% | 2.06 µM [falling, partial curve] | 2.06 µM [falling, partial curve] |
| CC(OC(=O)c1ccc(-n2cnnn2)cc1)C(=O)Nc1ccccc1F (configuration not stated) | 11.4% | 0.82 µM [falling, partial curve, poor fit] | 0.731 µM [falling, single point] |
| Cc1cc(N2CCOCC2)ccc1/C=C1\NC(=O)N(Cc2ccccc2)C1=O |  | 2.59 µM [rising, partial curve, poor fit] |  |
| O=C1C2C3C=CC(C3)C2C(=O)N1/N=C/c1cn(Cc2ccc(F)cc2)c2ccccc12 (configuration not stated) | -18.3% |  |  |
| COC(=O)c1ccc(NC(CC(C)C)C(=O)OC)c([N+](=O)[O-])c1 (configuration not stated) | 10.6% |  |  |
| Cc1ccc(C(=O)NCC(=O)NCC(c2cccs2)N2CCOCC2)cc1C (configuration not stated) | -20.7% | 0.103 µM [rising, full curve, poor fit] |  |
| Cc1ccc2c(c1)C(O)(CC(=O)/C=C/C=C/c1ccccc1)C(=O)N2 (configuration not stated) | -22.9% | 2.31 µM [rising, single point] |  |
| CC(=O)Nc1cccc(-c2csc(Nc3cc(C)ccn3)n2)c1 |  |  | 0.82 µM [rising, full curve] |
| Cc1nc2ccccc2cc1C(=O)N/N=C/c1cccs1 | -17% |  | 0.103 µM [falling, full curve, poor fit] |
| COc1ccccc1CCNC(=O)C(=O)c1cn(CC(=O)N2CCOCC2)c2ccccc12 | 13.3% | 29.1 µM [falling, single point] |  |
| Cc1cc(C)n(-c2ncnc3c2oc2ccccc23)n1 | -4.72% | 0.00517 µM [rising, full curve, poor fit] |  |
| COc1ccc(CNC(=O)CCCn2c(=S)[nH]c3cc4c(cc3c2=O)OCO4)cc1 | 121% | 29.1 µM [rising, single point] | 20.6 µM [rising, single point] |

| SMILES | cell number change | AC50 [1] | AC50 [2] |
| --- | --- | --- | --- |
| O=C(CC1CCCCC1)c1c(O)c2ccccc2oc1=O |  | 29.1 µM [falling, single point] |  |
| CCCCCOC(=O)C1=C(C)NC(=O)NC1c1ccc([N+](=O)[O-])cc1 (configuration not stated) | -22.6% | 29.1 µM [falling, single point] |  |
| O=c1ccc2cc(S(=O)(=O)Nc3ccccc3F)ccc2o1 | -1.66% |  |  |
| C=CCn1c(SCC(=O)NNC(=S)Nc2ccccc2)nnc1-c1ccccc1 | 5.29% | 0.82 µM [rising, full curve] |  |
| Cc1ccccc1S(=O)(=O)Nc1ncnc2scc(-c3ccccc3)c12 | 36.6% | 2.59 µM [rising, partial curve] | 10.3 µM [rising, partial curve] |
| CCCCC(=O)OCC(=O)c1[nH]c(C)c(C(C)=O)c1C | 34.5% | 20.6 µM [rising, single point] | 4.11 µM [rising, full curve, poor fit] |
| Cc1ccc(-c2nc(-c3cccnc3)sc2CC(=O)Nc2ccc3nc(C)sc3c2)cc1 | 39.4% | 1.84 µM [rising, partial curve] | 2.91 µM [rising, full curve] |
| O=C1CC(=O)c2c1cccc2[N+](=O)[O-] |  | 0.731 µM [falling, full curve] |  |
| Cc1ccc(C)c(OCC(=O)Nc2nonc2NC(=O)COc2cc(C)ccc2C)c1 | -49.9% | 29.1 µM [falling, single point] | 18.4 µM [falling, single point] |
| Cc1cc(Nc2cccc(F)c2)nc(-c2ccccc2O)n1 | -9.63% |  | 2.91 µM [rising, single point] |
| O=c1[nH]c(CN2CCCC2)nc2sc3c(c12)CCC3 | -11% | 1.84 µM [falling, full curve] |  |
| CCOC(=O)c1sc(NC(=O)CN(CC(C)C)CC(C)C)c(C(=O)OCC)c1C | 4.03% | 2.91 µM [rising, partial curve] |  |
| O=C(CSC1=NS(=O)(=O)c2ccccc21)Nc1ccccc1 | -46.3% | 29.1 µM [falling, single point] | 18.4 µM [falling, single point] |
| COc1ccc(-n2c(=O)[nH]cc(C(=O)Nc3ccc4c(c3)OCCO4)c2=O)cc1OC | 27.6% | 8.2 µM [rising, partial curve] |  |
| O=C(Nc1cc2c3c(c1)CC(=O)N3CCC2)c1ccccc1C(F)(F)F | -11.1% |  |  |
| CCOc1ccc(NC(=O)Cn2sc3nc(C)cc(C)c3c2=O)cc1 | -65.1% | 29.1 µM [falling, partial curve, poor fit] |  |
| CC(=O)N[C@@H](Cc1c[nH]c2ccccc12)C(=O)NC1CC1 | 16.7% | 29.1 µM [falling, single point] |  |
| CCN(CC)CC(O)COCCC12CC3CC(CC(C3)C1)C2 (configuration not stated) | 20.2% | 3.66 µM [falling, full curve, poor fit] |  |
| CC(C)COc1cccc(C(=O)N(CC(=O)Nc2ccccc2C(F)(F)F)Cc2ccco2)c1 | -14.1% |  |  |
| O=[N+]([O-])C(=C1NCCN1)C(Cl)=C(Cl)Cl | -20.3% | 0.651 µM [falling, full curve, poor fit] |  |

| SMILES | cell number change | AC50 [1] | AC50 [2] |
| --- | --- | --- | --- |
| CCOC(=O)c1c(NC(=O)CSc2nncs2)sc(C)c1-c1ccccc1 | 16.1% |  |  |
| Cc1cccc(CNc2ncnc3ccc(-c4ccccc4Cl)cc23)c1 | 6.75% and -2.14% | 2.06 µM [falling, single point] | 0.00411 µM [falling, full curve, poor fit] |
| COc1ccc(CN2C(=O)c3ccccc3C2C(=O)NCc2cccnc2)c(OC)c1 (configuration not stated) | 25.7% |  |  |
| Oc1ccc(-c2n[nH]c(=S)n2Cc2ccco2)cc1 | 22.7% |  |  |
| Nc1c(C(=O)NCCc2ccccc2)sc2nc(N3CCOCC3)c3c(c12)CCCC3 | 24.5% |  |  |
| CCOC(=O)c1cnc(-c2ccccc2)nc1N | 92.3% | 29.1 µM [rising, single point] | 29.1 µM [rising, single point] |
| CCOc1ccccc1NC(=O)C(=O)CC(=O)c1ccc(OC)cc1 | -14.6% | 32.6 µM [falling, single point] |  |
| Cc1cccc(-c2noc(CCc3ccccc3)n2)c1 | 3.8% |  |  |
| CC(C)n1nnnc1SCC(=O)Nc1ccccc1F | 6.25% |  |  |
| CSc1ccc(C(=O)N2CCc3ccc(NC(=O)c4ccccn4)cc3C2)cc1 | -34% |  | 0.00461 µM [falling, full curve, poor fit] |
| O=C(CN1CCOCC1)Nc1nc2ccc(Cl)cc2s1 | -15.2% | 0.116 µM [rising, full curve, poor fit] |  |
| Cc1ccc2cccc(OCC(=O)Nc3cccc(S(=O)(=O)N4CCCC4)c3)c2n1 | -17.5% | 0.411 µM [rising, single point] |  |
| CCn1cc([N+](=O)[O-])c(C(=O)N2N=C(c3ccc(OC)cc3OC)CC2c2ccccc2O)n1 (configuration not stated) | -7.3% | 29.1 µM [falling, single point] |  |
| Cc1c(Cl)cccc1NC(=S)NCCc1ccc(Cl)cc1 | -24.7% | 20.6 µM [falling, single point] |  |
| CCN(CC(=O)Nc1ccccc1C(F)(F)F)C(=O)c1oc2c(Cl)cccc2c1C |  |  | 1.64 µM [rising, partial curve] |
| O=C(COC(=O)c1cccc2ccccc12)Nc1ncc(C(F)(F)F)cc1Cl | -89.8% | 23.1 µM [falling, partial curve] | 25.9 µM [falling, partial curve] |
| Cc1cc(C)c(NC(=S)N2CCC(N(C)CC3CCCO3)CC2)c(C)c1 (configuration not stated) |  | 23.1 µM [falling, partial curve] |  |
| Cc1cc(NC(=O)CSc2nnc(-c3ccccc3Cl)o2)no1 | 43.6% | 29.1 µM [falling, single point] | 25.9 µM [rising, partial curve, poor fit] |
| C/C(=N\NC(=O)c1n[nH]c2c1CCC2)c1ccco1 | 18.3% |  |  |
| COc1cc2c3nnc(-c4ccc(F)cc4)c-3cn(Cc3cccc(F)c3)c2cc1OC | -30.7% | 32.6 µM [falling, partial curve] | 32.6 µM [falling, partial curve, poor fit] |
